At least one compound was matched to its structure with a doubt left.
How the values were obtained:
[1] = tested on: human amyloid precursor protein (hAPP) transgene; assay: Western blot of APP immunoreactivity in brain lysates; format: in vivo; conditions: control- vs rapamycin-treated AD mouse brains
[2] = tested on: AD mice; assay: Cerebral vessel density by high-resolution magnetic resonance angiography; format: in vivo, mouse; conditions: rapamycin-fed AD mice, 16 weeks
[3] = tested on: NO production in cortical vessels; assay: In vivo imaging of NO production in cortical vessels with NO-sensitive probe DAF-FM; set-up: species or system mouse; conditions: for NO production in cortical vessels: DAF-FM fluorescence after acute treatment
From the text: In vivo imaging experiments. Details of experimental procedures were identical to our previously published protocols (Zheng, et al., 2010). Briefly, mice were anesthetized with volatile isoflurane through a nosecone (3% induction, 1.5% maintenance). The depth of anesthesia was monitored by regular checking of whisker movement and the pinch withdrawal reflex of the hind limb and tail. Also, during surgery and imaging, three main vital signs including heart rate, respiratory rate, and oxygen saturation were periodically assessed by use of the MouseOx system (STARR Life Sciences). Body temperature was maintained at 37° C. by use of feedback-controlled heating pad (Gaymar T/Pump). Initially, the scalp was shaved, incised along the midline and retracted to expose the dorsal skull. Then removal of periosteum by forceps and cleaning of skull by a sterile cotton swab were performed. A stainless steel head plate was glutted (VetBond, 3M, St. Paul, Minn.) to dorsal skull and screwed to a custom-made stereotaxic frame. To create a thin-skull cranial window over the somotosensory cortex, skull was initially thinned by high-speed electric drill (Fine Science Tools, Foster City, Calif.) and subsequently thinned to approximate 50 μm by using a surgical blade under a dissecting microscope (Nikon SMZ800). The optimal thinness was indicated by high transparency and flexibility of skull. Artificial cerebrospinal fluid (aCSF) was used to wash the thinned area and enable pial vasculature clearly visible through the window. In vivo imaging of cortical vasculature was performed by using an Olympus FV1000 MPE with a 40× 0.8 NA water-immersion objective (Nikon). To illuminate vasculature, FITC-dextran or Rhodamine-dextran dissolved in sterilized PBS (300 μl, 10 mg/ml) was injected through tail vein at the beginning of the experiments. To observe nitric oxide (NO) derived from blood vessels, the NO indicator dye DAF-FM (Molecular Probes) was dissolved in DMSO, diluted in Rhodamine-dextran solution (250 μM), and induced into blood vessels through tail-vein injection. High-resolution z stacks of cortical layer I vasculature were sequentially acquired at different times. The NIH image J plugins stackreg and turboreg were used to align the z stacks or maximal intensity z-projections of z stacks to facilitate identification and comparison of the same blood vessels. The diameter of blood vessels was analyzed by Image J plugin vessel diameter. For the drug application, rapamycin (250 μl, 10 mg/kg solution in PBS) or a NO synthase inhibitor L-NAME (250 μl, 30 mg/kg solution in PBS) was injected intraperitoneally. Acetylcholine (300 μl, 7.5 μg/ml solution in PBS), as a positive control for vasodilation, together with Rhodamine-dextran and DAF-FM were injected intravenously via tail vein.

[4] = tested on: AD mice; assay: Cerebral blood flow by MRI continuous arterial spin labeling; format: in vivo, mouse; conditions: rapamycin-fed AD mice, 16 weeks
Experimental: Rapamycin treatment. Mice were fed chow containing either microencapsulated enteric-coated rapamycin at 2.24 mg/kg or a control diet as described by Harrison et al., 2009. Rapamycin was used at 14 mg per kg food (verified by HPLC). On the assumption that the average mouse weighs 30 gm and consumes 5 gm of food/day, this dose supplied 2.24 mg rapamycin per kg body weight/day (Harrison, et al., 2009). All mice were given ad libitum access to rapamycin or control food and water for the duration of the experiment. Body weights and food intake were measured weekly. […] Littermates (transgenic and non-transgenic mice) were housed together, thus we could not distinguish effects of genotype on food consumption. […]
Animal Preparation for Functional Neuroimaging. […] Respiration rate (90-130 bpm) and rectal temperature (37±0.5° C.) were continuously monitored. Heart rate and blood oxygen saturation level (SaO2) were recorded using a MouseOx system (STARR Life Science Corp., Oakmont, Pa.) and maintained within normal physiological ranges.
Cerebral Blood Flow. Quantitative CBF (with unit of […]) was measured using the MRI based continuous arterial spin labeling (CASL) techniques (Duong, et al., 2000; Muir, et al., 2008) on a horizontal 7T/30 cm magnet and a 40G/cm BGA12S gradient insert (Bruker, Billerica, Mass.). […]

[5] = tested on: AD mice; assay: Microhemorrhages (hemosiderin deposits) in brain sections; format: in vivo, mouse; conditions: rapamycin-treated AD mice
[6] = tested on: AD mice; assay: Diffusivity of water in areas of high amyloid load; format: in vivo, mouse; conditions: rapamycin-treated AD mice
[7] = tested on: cortical vessels; assay: In vivo 2-photon imaging of cortical vessel diameter; set-up: species or system mouse
From the text: In vivo imaging experiments. Details of experimental procedures were identical to our previously published protocols (Zheng, et al., 2010). Briefly, mice were anesthetized with volatile isoflurane through a nosecone (3% induction, 1.5% maintenance). The depth of anesthesia was monitored by regular checking of whisker movement and the pinch withdrawal reflex of the hind limb and tail. Also, during surgery and imaging, three main vital signs including heart rate, respiratory rate, and oxygen saturation were periodically assessed by use of the MouseOx system (STARR Life Sciences). Body temperature was maintained at 37° C. by use of feedback-controlled heating pad (Gaymar T/Pump). Initially, the scalp was shaved, incised along the midline and retracted to expose the dorsal skull. Then removal of periosteum by forceps and cleaning of skull by a sterile cotton swab were performed. A stainless steel head plate was glutted (VetBond, 3M, St. Paul, Minn.) to dorsal skull and screwed to a custom-made stereotaxic frame. To create a thin-skull cranial window over the somotosensory cortex, skull was initially thinned by high-speed electric drill (Fine Science Tools, Foster City, Calif.) and subsequently thinned to approximate 50 μm by using a surgical blade under a dissecting microscope (Nikon SMZ800). […] The diameter of blood vessels was analyzed by Image J plugin vessel diameter. […]

[8] = tested on: AD mice; assay: Cerebral metabolic rate of glucose by positron emission tomography; format: in vivo, mouse; conditions: control- vs rapamycin-treated groups
[9] = tested on: AD mice; assay: Aβ plaques and CAA by immunohistochemistry and confocal imaging of brain sections; format: in vivo, mouse
[10] = tested on: AD mice; assay: Morris water maze spatial learning and memory in AD mice; format: in vivo, mouse; conditions: rapamycin chow 2.24 mg/kg/day, 16 weeks from 7 months of age
[11] = rapamycin 10 mg/kg intraperitoneally

CO[C@H]1C[C@@H]2CC[C@@H](C)[C@@](O)(O2)C(=O)C(=O)N2CCCC[C@H]2C(=O)O[C@H]([C@H](C)C[C@@H]2CC[C@@H](O)[C@H](OC)C2)CC(=O)[C@H](C)/C=C(\C)[C@@H](O)[C@@H](OC)C(=O)[C@H](C)C[C@H](C)/C=C/C=C/C=C/1C [rapamycin]
Levels of transgenic human amyloid precursor protein [1]: unchanged | Reduction in brain vascularity (cerebral vessel density) in AD mice [2]: abrogated | NO production in cortical vessels [3]: local increases in NO production | Duration of sustained increase in NO production [3, 11]: 18 min | Time to maximum NO production after treatment [3, 11]: 7 min | Global cerebral blood flow (CBF) [4]: indistinguishable from that of non-transgenic groups | Hippocampal CBF [4]: restored to levels indistinguishable from those of non-transgenic littermates | Hemosiderin deposits (microhemorrhage) [5]: not significantly different from those observed in non-transgenic littermates | Diffusivity of water in areas of high amyloid load [6]: restored to normal | Vasodilation response relative to response after acetylcholine ([7]; fraction of ACh response): one-third | Cerebral metabolic rate of glucose (CMRGlc) [8]: not significantly different | Aβ deposits (plaques) in brain ([9]; rapamycin-fed vs control-fed symptomatic AD mice): significantly decreased | Aβ associated with brain blood vessels (CAA) ([9]; rapamycin-treated AD mice): pronouncedly reduced | Learning deficits of AD mice during spatial training (Morris water maze) [10]: partially abrogated | Spatial memory of trained platform location (probe trial) ([10]; AD mice): significantly improved compared to that of control-fed AD mice

CC(=O)OCC[N+](C)(C)C [ACh, acetylcholine]
NO production in cortical vessels [3]: uniform increase in NO production | Vessel diameter after acute treatment (in words) ([7]; following NO release): uniform increases in vessel diameter

— US20150290176A1, “USE OF MTOR INHIBITORS TO TREAT VASCULAR COGNITIVE IMPAIRMENT” (THE BOARD OF REGENTS OF THE UNIVERSITY OF TEXAS SYSTEM, priority 2012, published 2015)
